These results are taken from patent US5756343, “Cell stress transcriptional factors” (The United States of America as represented by the …, dated 1992).

The target in data set [1] is T1, Drosophila HSF full length (pHSF WT) (Drosophila melanogaster) (UniProt P22813).
T1 sequence: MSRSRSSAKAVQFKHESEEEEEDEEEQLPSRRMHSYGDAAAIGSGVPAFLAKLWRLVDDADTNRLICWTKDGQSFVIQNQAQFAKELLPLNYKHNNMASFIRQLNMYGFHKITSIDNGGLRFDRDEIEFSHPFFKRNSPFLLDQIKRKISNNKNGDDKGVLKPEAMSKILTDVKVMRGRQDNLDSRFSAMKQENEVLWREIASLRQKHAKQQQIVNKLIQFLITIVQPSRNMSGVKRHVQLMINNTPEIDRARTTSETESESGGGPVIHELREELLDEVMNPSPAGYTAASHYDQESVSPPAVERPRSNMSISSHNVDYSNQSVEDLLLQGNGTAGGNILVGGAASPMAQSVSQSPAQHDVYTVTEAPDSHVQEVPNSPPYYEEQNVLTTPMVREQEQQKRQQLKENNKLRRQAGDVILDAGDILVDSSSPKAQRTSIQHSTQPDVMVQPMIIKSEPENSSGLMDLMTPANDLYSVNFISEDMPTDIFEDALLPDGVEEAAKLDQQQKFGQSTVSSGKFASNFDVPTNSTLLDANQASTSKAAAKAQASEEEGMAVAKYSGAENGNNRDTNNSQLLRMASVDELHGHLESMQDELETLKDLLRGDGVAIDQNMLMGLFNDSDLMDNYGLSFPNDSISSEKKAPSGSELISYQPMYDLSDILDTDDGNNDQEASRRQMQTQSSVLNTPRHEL
Briefly: footprint. Conditions: DNase I protection of HSEs, no heat shock needed; fragment from hsp70 -185 to +295 template; protein in a lysate after overexpression; label: 32P 5' end.

Data set [2] has as its target T2, human HSF (HuHSF) (Homo sapiens) (UniProt Q00613).
T2 sequence: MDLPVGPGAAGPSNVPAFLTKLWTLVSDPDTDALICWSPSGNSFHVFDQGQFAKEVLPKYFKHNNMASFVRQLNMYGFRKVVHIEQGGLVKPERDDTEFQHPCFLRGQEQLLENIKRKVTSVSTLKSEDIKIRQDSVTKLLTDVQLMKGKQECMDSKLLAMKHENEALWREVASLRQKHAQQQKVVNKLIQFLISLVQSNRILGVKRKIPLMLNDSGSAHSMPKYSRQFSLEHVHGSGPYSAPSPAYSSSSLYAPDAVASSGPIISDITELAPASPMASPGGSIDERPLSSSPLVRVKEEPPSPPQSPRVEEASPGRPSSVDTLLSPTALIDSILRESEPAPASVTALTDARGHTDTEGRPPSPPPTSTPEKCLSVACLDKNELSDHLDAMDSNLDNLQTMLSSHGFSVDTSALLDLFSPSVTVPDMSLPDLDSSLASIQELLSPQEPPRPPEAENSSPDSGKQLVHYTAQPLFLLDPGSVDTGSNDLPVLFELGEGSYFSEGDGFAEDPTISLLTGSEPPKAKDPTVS
Briefly: footprint. The note with it: footprints essentially identical to Drosophila HSF; protein in a lysate after overexpression; label: 32P 5' end.

Results from cells or extracts need not show a direct contact. Protein sequences can lack the tags named with them.

“AAACGGCACACTGTTCTCGTTGCTTCGAGAGAGCGCGCCTCGAATGTTCGCGAAAAGAGCGCCGGAGTATAAATAGAGGCGCTTCGTCGACGGAGCGTCAATTCAATTCA (double strand) [hsp70 promoter (-100 to +10 printed)]”: the binding result in data set [1] and in data set [2] was “binds” each time.
